Laboratory results as given in publication doi:10.1101/2025.02.21.638496.
Read-outs that look alike come from different tables or passages of the source. These are yes or no findings as the source states them, for the method shown. In cells and extracts the contact can be indirect. Here binding means that the protein was enriched with, or labelled near, the bait; the list need not be complete. For some of these results: No binding means not detected with the bait. Tags and fused reporters may be left off the sequences shown. One block for each molecule: values may come before it.

Experiments:
Test in all cases: affinity purification with mass spectrometry
[1] = target: T1, RNase J with a C-terminal 3×FLAG tag (Synechocystis sp. PCC 6803) (UniProt P54123)
T1 sequence: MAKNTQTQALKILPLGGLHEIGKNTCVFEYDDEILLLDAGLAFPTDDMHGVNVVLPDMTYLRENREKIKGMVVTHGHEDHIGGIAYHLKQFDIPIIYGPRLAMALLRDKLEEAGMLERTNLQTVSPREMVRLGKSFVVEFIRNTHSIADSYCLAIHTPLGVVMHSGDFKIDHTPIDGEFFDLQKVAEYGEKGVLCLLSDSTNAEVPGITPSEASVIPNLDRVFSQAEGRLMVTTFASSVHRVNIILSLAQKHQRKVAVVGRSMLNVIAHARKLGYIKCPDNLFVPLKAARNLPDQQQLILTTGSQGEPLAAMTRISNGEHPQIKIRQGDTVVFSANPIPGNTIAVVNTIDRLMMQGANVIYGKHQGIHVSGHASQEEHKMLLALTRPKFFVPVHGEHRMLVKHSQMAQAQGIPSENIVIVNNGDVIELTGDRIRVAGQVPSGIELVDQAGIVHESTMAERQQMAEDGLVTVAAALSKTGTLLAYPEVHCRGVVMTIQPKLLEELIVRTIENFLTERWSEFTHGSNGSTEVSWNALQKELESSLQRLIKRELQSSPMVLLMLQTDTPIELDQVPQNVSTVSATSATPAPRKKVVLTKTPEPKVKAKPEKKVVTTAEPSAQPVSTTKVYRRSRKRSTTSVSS

[2] = target: T2, RNase J with an N-terminal 3×FLAG tag (Synechocystis sp. PCC 6803) (UniProt P54123)
T2 sequence: T1 sequence

[3] = target: T2, RNase J with an N-terminal 3×FLAG tag (Synechocystis sp. PCC 6803); remark: listed apart in the source
[4] = target: T1, RNase J with a C-terminal 3×FLAG tag (Synechocystis sp. PCC 6803); remark: listed apart in the source

binding [2]: binds | binding [1]: binds
Molecule: Slr0552

binding [3]: no binding | binding [4]: no binding
B2: RNase E (enzyme, UniProt P72656 1-674)
chain: MPKQIVIAEKHQVAAVFWKDQIQELVVSTGSQQVGDIYLGLVDNILPSIDAAFINIGDTEKNGFIHVSDLGPVRLRRTAGSISELLSPQQRVLVQVMKEPTGNKGPRLTGNISMPGRYMVLMPYGRGVNLSRRINREEERSRLRALAVLIKPPGMGLLVRTEAEDVPEDAIIEDLENLQKQWELVQQQAMTRSAPMLLDRDDDFIKRVLRDMYSSEVNRIVVDTPAGMKRIKQQLMNWDQGRLPEGVLIDCHRESLSILEYFRVNATIREALKPRVDLPSGGYIIIEPTEALTVIDVNSGSFTHSANSRETVLWTNYEAATEIARQLKLRNIGGVIIIDFIDMDSHKDQLQLLEHFNRCLETDKARPQIAQLTELGLVELTRKRQGQNLYELFGQPCPECGGLGHLVELPGEKGFVSLSPTAVNSSIPPRLVEKPILSPPVAKVNDLPKKEEAKISSPLDLLFHPNYQEQGDRDSNRRRRRRRGSEFSEKENIKSVGISRSKGPSPSPTKEKVTGTAPPRRERPSRRVEKTLVPVDVAMTTLEQDIYARMGISPLIKTEYADQDPRSFMVSVVTAGAALEGNTNGSGSLVNAVITTVDNGDNGDNVPSDGLTIVSEVTAPTPVIEQPREETVEPEQVVLPQLDDETPAAPVAEESAPIETKKRPGRRRRRSSAE

Further lines, the molecule ahead of its results:

Molecule: bifunctional nuclease domain protein Sll1142 (from UniProt P73466)
binding [1]: binds

Molecule: pyruvate kinase (enzyme)
binding [2]: binds

Molecule: Slr1102
binding [2]: binds

B1: PNPase (polyribonucleotide nucleotidyltransferase) (enzyme, UniProt P72659 1-718)
chain: MQEFDKSISFDGRDIRLKMGTLAPQAGGSVLIQSGDTAVLVTATRAKGRDGIDFLPLTVDYEGRLYAAGRIPGGFLRREGRPPEKATLISRLIDRPLRPLFPHWLRDELQIVATTLSMDEEVPPDVLAVTGASVAVILAQIPFKGPMAAVRVGLVGDDFIINPTYREVHNGDLDLVVAGTPAGIVMVEAGANQLPEQDIIEAIDFGYEAVQDLINAQRELMTDLGITLATSEPPPVNTAVEEFIANRASKKIITVLGQFDLGKDGRDAALDEIKATEVETAIAELPETDPVKQSVEEDPKLVGNLYKALTKKLMRKQIVDDGVRVDGRKLEQVRPISCEVGFLPRRVHGSGLFNRGLTQVLSLATLGSPGDAQDLADDLHPEDEKRYLHHYNFPPYSVGEARPMRSPGRREIGHGALAERAIIPVLPPQEDFPYVVRVVSEVLSSNGSTSMGSVCGSTLALMDAGVPIKKPVSGAAMGLIKEGDEIRILTDIQGIEDFLGDMDFKVAGTDSGITALQMDMKIDGLSMEVVSKAIMQALPARLHILDKMLATIREPRPELSPFAPRLLTLKIEPEHIGMVIGPGGKTIKGITEQTSCKIDIADDGTVTIASSEGERAERARQMIYNMTRKLNEGEVYLGRVTRIIPIGAFVEVLPGKEGMIHISQLTEGRVGKVEDEVGVGDEVIVKVREIDSKGRLNLTRLGIHPDEAAEARRNASRG
binding [3]: binds | binding [4]: binds

B3: TrxA (protein, UniProt P52231 1-107)
chain: MSATPQVSDASFKEDVLDSELPVLVDFWAPWCGPCRMVAPVVDEISQQYEGKVKVVKLNTDENPNTASQYGIRSIPTLMIFKGGQRVDMVVGAVPKTTLASTLEKYL
binding [4]: binds
